From ChEMBL document CHEMBL3988442, “University of Dundee, Small-Polar-MMV Screening Library” (2021).

The chains behind the UniProt entries cited, without tags or fusion partners.
UniProt E9BF75, entry or part of it: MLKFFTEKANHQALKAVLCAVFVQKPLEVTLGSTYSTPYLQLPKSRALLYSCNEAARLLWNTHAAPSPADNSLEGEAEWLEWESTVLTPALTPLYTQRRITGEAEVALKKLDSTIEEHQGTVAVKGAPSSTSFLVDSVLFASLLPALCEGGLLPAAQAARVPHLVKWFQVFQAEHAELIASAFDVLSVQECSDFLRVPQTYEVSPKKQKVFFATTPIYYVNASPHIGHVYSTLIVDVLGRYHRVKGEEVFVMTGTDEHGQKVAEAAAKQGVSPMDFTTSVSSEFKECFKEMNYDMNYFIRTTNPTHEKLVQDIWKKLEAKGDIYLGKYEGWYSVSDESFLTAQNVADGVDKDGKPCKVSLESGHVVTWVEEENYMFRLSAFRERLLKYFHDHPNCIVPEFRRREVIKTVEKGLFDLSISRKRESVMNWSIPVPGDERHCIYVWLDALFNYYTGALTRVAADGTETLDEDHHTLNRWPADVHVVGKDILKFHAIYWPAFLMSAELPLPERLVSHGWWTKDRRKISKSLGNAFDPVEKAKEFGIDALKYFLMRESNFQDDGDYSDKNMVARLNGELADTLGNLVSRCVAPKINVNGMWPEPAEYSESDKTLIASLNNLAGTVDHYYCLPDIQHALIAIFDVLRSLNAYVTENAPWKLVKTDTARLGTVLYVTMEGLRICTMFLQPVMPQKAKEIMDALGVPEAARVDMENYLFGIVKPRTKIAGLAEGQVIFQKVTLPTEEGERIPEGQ

All values are in %. The record does not define 0% and 100%; most values in the screen are far below 50% and negative numbers occur (in some assays of this library far below -100). The compounds are a random part of those screened. A dash means the value is not listed here; it may have been measured.

Mtb heat-shock: 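Assay on Mycobacterium tuberculosis, filed only as a heat shock assay from Cornell; the read-out is not stated. The concentration is filed as 10 mM, unlikely as a test dose, so the dose is not known. Higher reads as stronger inhibition (inferred: compounds with an IC50 in retests scored well above the rest). Of about 69,000 compounds tested this way, about 930 (1.4%) reached 50% or more in at least one test.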
LdMetRS: 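Methionyl-tRNA synthetase (putative), Leishmania donovani (UniProt E9BF75). Primary screen of methionyl-tRNA synthetase; the read-out is not stated. The test concentration is not given. Values are per cent inhibition. Size under these conditions: about 68,000 compounds, about 24 of them at 50% or above in at least one test.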
Mtb growth Cornell: 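Whole-cell assay for inhibitors of Mycobacterium tuberculosis growth, labelled Cornell in the record; the read-out is not stated. The concentration is filed as 10 mM, unlikely as a test dose, so the dose is not known. Higher means stronger inhibition (inferred from two other growth screens of the library). About 53,000 compounds were tested under these conditions; 1.7% (about 900) showed 50% or more at least once.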

* COc1ccc(N2CCCC3(C2)CN(c2cccnc2)CCO3)cc1.O=C(O)C(F)(F)F (stereo unspecified) | Mtb heat-shock: -3.476%; Mtb growth Cornell: 4.117%
* O=C(c1ccc2[nH]cnc2c1)N1CCCC1Cn1cccn1 (stereo unspecified) | Mtb heat-shock: 10.82%; LdMetRS: 22.31%
* CS(=O)(=O)NCC1CCCN(C(=O)c2ccc(F)c(F)c2)C1 (stereo unspecified) | Mtb heat-shock: -7.706%; LdMetRS: 9.509%
* CCc1nnc2n1CCN(CC(=O)N(CC)C1=CCCCC1)C2 | Mtb heat-shock: -9.844%; LdMetRS: 6.609%; Mtb growth Cornell: -2.235%
* CC1CCN(C(=O)[C@@H]2C[C@H]3OCC[C@H]3N(Cc3ccoc3)C2)CC1 | LdMetRS: 8.571%
* CCOC(=O)c1n[nH]cc1-c1cncn1CCCn1nc(C)cc1C | LdMetRS: 16.13%
* CC(C)n1cnnc1CNC(=O)c1cnc2ccccc2n1 | Mtb heat-shock: -42.62%; LdMetRS: 11.63%; Mtb growth Cornell: 8.157%
* CC(C)NC(=O)[C@H]1CCS(=O)(=O)[C@@H]2CN(c3ncccn3)C[C@H]12 | LdMetRS: 12.33%
* CN(c1ccc(Cl)c(C(=O)NCCCN2CCOCC2)c1)S(C)(=O)=O | Mtb heat-shock: -21.19%; LdMetRS: 5.722%; Mtb growth Cornell: -13.22%
* COc1ccc(OCC(O)CN2CCN(c3nccs3)CC2)cc1 (stereo unspecified) | Mtb heat-shock: -10.17%; LdMetRS: 0%; Mtb growth Cornell: -3.942%
* O=C(Cn1nnc(-c2cc3ccccc3o2)n1)N1CCOCC1 | Mtb heat-shock: 9.528%; LdMetRS: 12.64%; Mtb growth Cornell: -40.78%
* CCN(C(=O)NCCc1ccc(C)cc1C)C(C)CS(C)(=O)=O (stereo unspecified) | Mtb heat-shock: 12.58%; LdMetRS: 17.96%; Mtb growth Cornell: 21.64%
* CN(C)C(=O)N1CCC2(CC1)CN(Cc1ccccn1)C(=O)CO2 | LdMetRS: 4.375%
* O=C1CC2(CCN(Cc3ccc(-c4ccccc4)s3)C2)C(=O)N1 (stereo unspecified) | Mtb heat-shock: -21.59%; LdMetRS: 15.72%; Mtb growth Cornell: -1.596%
* O=C(O)C(F)(F)F.c1csc(CN2CCC3(CCCN(c4nncs4)C3)C2)n1 (stereo unspecified) | Mtb heat-shock: -27.76%; Mtb growth Cornell: 12.65%
* CCn1cc(CN2CCC(c3ncc(Cl)cc3S(C)(=O)=O)CC2)c(C)n1 | Mtb heat-shock: 5.447%; LdMetRS: 15.12%; Mtb growth Cornell: 37.62%
* Cc1cnc(C(=O)N2C[C@@H]3[C@@H](C2)OCC(=O)N3CC2CCCC2)cn1 | LdMetRS: -75.9%
* COc1ncccc1CN1C[C@@H]2COC[C@]2(COc2ccccn2)C1 | LdMetRS: 13.54%
* Cc1ccc(-n2nnnc2SCN2CCCCC2=O)cc1C | Mtb heat-shock: -7.401%; LdMetRS: 10.57%; Mtb growth Cornell: 21.95%
* COc1ccc(OC)c(C(C)NC(=O)Nc2nnc(C)s2)c1 (stereo unspecified) | Mtb heat-shock: 17.04%; LdMetRS: 6.406%
* Cc1oc(-c2ccco2)nc1CC(=O)N1CCN(CC(C)O)CC1 (stereo unspecified) | Mtb heat-shock: 21.7%; LdMetRS: 5.842%; Mtb growth Cornell: -42.34%
* COc1ccc(C)cc1C(C)NS(=O)(=O)c1ccc2c(c1)CCC(=O)N2 (stereo unspecified) | Mtb heat-shock: -18.14%; LdMetRS: 1.799%; Mtb growth Cornell: -4.784%
* CN1CCN(C)C(CNc2c(C#N)cnc3ccc(Cl)cc23)C1 (stereo unspecified) | Mtb heat-shock: -23.87%; LdMetRS: 5.307%; Mtb growth Cornell: -0.6863%
* Cc1ccoc1C(=O)N1CCOCC2(CCN(c3ncccn3)C2)C1.O=C(O)C(F)(F)F (stereo unspecified) | Mtb heat-shock: -4.029%; Mtb growth Cornell: -1.755%
* Cc1cccc(Sc2nccn(C)c2=O)c1 | Mtb heat-shock: -11.9%; LdMetRS: 8.333%
* Cn1nnc2c1CCN(Cc1ccncc1)C2COCc1ccccc1.O=C(O)C(F)(F)F.O=C(O)C(F)(F)F (stereo unspecified) | Mtb heat-shock: -11.02%; Mtb growth Cornell: 11.7%
* CCc1nnc(C(C)N2CCCN(C(=O)OCC(C)C)CC2)o1 (stereo unspecified) | Mtb heat-shock: -28.44%; LdMetRS: 5.943%; Mtb growth Cornell: 0.8149%
* CC(=O)N1CCCN(C(=O)CCOc2ccc(C(C)C)cc2)CC1 | Mtb heat-shock: -35.28%; LdMetRS: 15.3%
* O=C1NCC[C@]12CN(Cc1nccs1)C[C@H]2c1ccccc1 | LdMetRS: 8.759%
* CN(C)C(=O)N[C@H]1CN(Cc2ccc3c(c2)OCO3)[C@@H]2CCCO[C@H]12 | LdMetRS: 11.22%
* CCc1ccc(CN(CC)Cc2ccc(S(=O)(=O)NC)cc2)cc1 | Mtb heat-shock: -19.32%; LdMetRS: 12.45%
* CCCc1nc(N2CC[C@@H](c3ccc4ccccc4c3)[C@H](O)C2)no1 | Mtb heat-shock: -18.1%; LdMetRS: 8.125%; Mtb growth Cornell: -28.64%

2 of the entries, repeated:

Compound	Mtb heat-shock	LdMetRS	Mtb growth Cornell
Cc1oc(-c2ccco2)nc1CC(=O)N1CCN(CC(C)O)CC1 (stereo unspecified)	21.7	5.842	-42.34
Cc1ccoc1C(=O)N1CCOCC2(CCN(c3ncccn3)C2)C1.O=C(O)C(F)(F)F (stereo unspecified)	-4.029	-	-1.755